These are yes or no findings as the source states them, for the method shown. In cells and extracts the contact can be indirect. Here binding means that the protein was enriched with, or labelled near, the bait; the list need not be complete.
B1: Neurofilament medium polypeptide (mouse) (protein, UniProt P08553 1-848)
chain: MSYTLDSLGNPSAYRRVTETRSSFSRVSGSPSSGFRSQSWSRGSPSTVSSSYKRSALAPRLAYSSAMLSSAESSLDFSQSSSLLNGGSGGDYKLSRSNEKEQLQGLNDRFAGYIEKVHYLEQQNKEIEAEIQALRQKQASHAQLGDAYDQEIRELRATLEMVNHEKAQVQLDSDHLEEDIHRLKERFEEEARLRDDTEAAIRALRKDIEESSMVKVELDKKVQSLQDEVAFLRSNHEEEVADLLAQIQASHITVERKDYLKTDISTALKEIRSQLECHSDQNMHQAEEWFKCRYAKLTEAAEQNKEAIRSAKEEIAEYRRQLQSKSIELESVRGTKESLERQLSDIEERHNHDLSSYQDTIQQLENELRGTKWEMARHLREYQDLLNVKMALDIEIAAYRKLLEGEETRFSTFSGSITGPLYTHRQPSVTISSKIQKTKVEAPKLKVQHKFVEEIIEETKVEDEKSEMEETLTAIAEELAASAKEEKEEAEEKEEEPEAEKSPVKSPEAKEEEEEGEKEEEEEGQEEEEEEDEGVKSDQAEEGGSEKEGSSEKDEGEQEEEEGETEAEGEGEEAEAKEEKKIEGKVEEVAVKEEIKVEKPEKAKSPMPKSPVEEVKPKPEAKAGKGEQKEEEKVEEEKKEVTKESPKEEKVEKKEEKPKDVADKKKAESPVKEKAVEEVITISKSVKVSLEKDTKEEKPQPQEKVKEKAEEEGGSEEEGSDRSPQESKKEDIAINGEVEGKEEEEQETQEKGSGREEEKGVVTNGLDVSPAEEKKGEDSSDDKVVVTKKVEKITSEGGDGATKYITKSVTVTQKVEEHEETFEEKLVSTKKVEKVTSHAIVKEVTQGD
B2: Ras-related protein Rab-3A (mouse) (protein, UniProt P63011 1-220)
chain: MASATDSRYGQKESSDQNFDYMFKILIIGNSSVGKTSFLFRYADDSFTPAFVSTVGIDFKVKTIYRNDKRIKLQIWDTAGQERYRTITTAYYRGAMGFILMYDITNEESFNAVQDWSTQIKTYSWDNAQVLLVGNKCDMEDERVVSSERGRQLADHLGFEFFEASAKDNINVKQTFERLVDVICEKMSESLDTADPAVTGAKQGPQLTDQQAPPHQDCAC
B3: Pyruvate dehydrogenase E1 component subunit β, mito (mouse) (protein, UniProt Q9D051 31-359)
chain: VQLTVREAINQGMDEELERDEKVFLLGEEVAQYDGAYKVSRGLWKKYGDKRIIDTPISEMGFAGIAVGAAMAGLRPICEFMTFNFSMQAIDQVINSAAKTYYMSAGLQPVPIVFRGPNGASAGVAAQHSQCFAAWYGHCPGLKVVSPWNSEDAKGLIKSAIRDNNPVVMLENELMYGVAFELPAEAQSKDFLIPIGKAKIERQGTHITVVAHSRPVGHCLEAAAVLSKEGIECEVINLRTIRPMDIEAIEASVMKTNHLVTVEGGWPQFGVGAEICARIMEGPAFNFLDAPAVRVTGADVPMPYAKVLEDNSVPQVKDIIFAVKKTLNI
B4: Dihydrolipoyl-lysine residue succinyltransferas 2-oxoglutarate dehydrogenase complex, mito (mouse) (protein, UniProt Q9D2G2 69-454)
chain: NDVITVQTPAFAESVTEGDVRWEKAVGDAVAEDEVVCEIETDKTSVQVPSPANGIIEALLVPDGGKVEGGTPLFTLRKTGAAPAKAKPAETPAPAHKAEPAAPAAPPPPAAPVLTQMPPVPSPSQPPSSKPVSAIKPTAAPPLAEAGAAKGLRSEHREKMNRMRQRIAQRLKEAQNTCAMLTTFNEVDMSNIQEMRARHKDAFLKKHNLKLGFMSAFVKASAFALQEQPVVNAVIDDATKEVVYRDYIDISVAVATPRGLVVPVIRNVETMNYADIERTINELGEKARKNELAIEDMDGGTFTISNGGVFGSLFGTPIINPPQSAILGMHAIFDRPVAVGGKVEVRPMMYVALTYDHRLIDGREAVTFLRKIKAAVEDPRVLLLDL
B5: Sideroflexin-3 (mouse) (protein, UniProt Q91V61 1-321)
chain: MGDLPLNINIQEPRWDQSTFLGRARHFFTVTDPRNLLLSGEQLEASRNIVQNYRAGVATPGLTEDQLWRAKYVYDSAFHPDTGEKVVLIGRMSAQVPMNMTITGCMLTFYRKTPTVVFWQWVNQSFNAIVNYSNRSGDAPITVQQLGTAYVSATTGAVATALGLKSLTKHLPPLVGRFVPFAAVAAANCINIPLMRQRELQVGIPVTDEAGQRLGHSVTAAKQGIFQVVISRIGMAIPAMAIPPVIMNTLEKKDFLKRRPWLGAPLQVGLVGFCLVFATPLCCALFPQRSSIHVTRLEPELRAQIQAQNPSIDVVYYNKGL
B6: Neurofilament light polypeptide (mouse) (protein, UniProt P08551 1-543)
chain: MSSFGYDPYFSTSYKRRYVETPRVHISSVRSGYSTARSAYSSYSAPVSSSLSVRRSYSSSSGSLMPSLENLDLSQVAAISNDLKSIRTQEKAQLQDLNDRFASFIERVHELEQQNKVLEAELLVLRQKHSEPSRFRALYEQEIRDLRLAAEDATNEKQALQGEREGLEETLRNLQARYEEEVLSREDAEGRLMEARKGADEAALARAELEKRIDSLMDEIAFLKKVHEEEIAELQAQIQYAQISVEMDVSSKPDLSAALKDIRAQYEKLAAKNMQNAEEWFKSRFTVLTESAAKNTDAVRAAKDEVSESRRLLKAKTLEIEACRGMNEALEKQLQELEDKQNADISAMQDTINKLENELRSTKSEMARYLKEYQDLLNVKMALDIEIAAYRKLLEGEETRLSFTSVGSITSGYSQSSQVFGRSAYSGLQSSSYLMSARSFPAYYTSHVQEEQTEVEETIEATKAEEAKDEPPSEGEAEEEEKEKEEGEEEEGAEEEEAAKDESEDTKEEEEGGEGEEEDTKESEEEEKKEESAGEEQVAKKKD
B7: OCIA domain-containing protein 2 (mouse) (protein, UniProt Q9D8W7 1-154)
chain: MASVSTHGNQEKSPHLPPLSKQSLLFCPKSKLHIHRGEIAKIIRECQEESFWKRALPFSLISMLVTQGLVHQGYLAANPRFGSLPKVALAGLLGFGLGKASYIRVCQSKFHSFEDQLRGAGFGPEHNRHCLLTCEDCKTRRGLSEKAGSQPSAS
B8: Thy-1 membrane glycoprotein (mouse) (protein, UniProt P01831 20-131)
chain: QKVTSLTACLVNQNLRLDCRHENNTKDNSIQHEFSLTREKRKHVLSGTLGIPEHTYRSRVTLSNQPYIKVLTLANFTTKDEGDYFCELQVSGANPMSSNKSISVYRDKLVKC
B9: Pyruvate dehydrogenase E1 component subunit α, somatic form, mito (mouse) (protein, UniProt P35486 30-390)
chain: FANDATFEIKKCDLHRLEEGPPVTTVLTREDGLKYYRMMQTVRRMELKADQLYKQKIIRGFCHLCDGQEACCVGLEAGINPTDHLITAYRAHGFTFTRGLPVRAILAELTGRRGGCAKGKGGSMHMYAKNFYGGNGIVGAQVPLGAGIALACKYNGKDEVCLTLYGDGAANQGQIFEAYNMAALWKLPCIFICENNRYGMGTSVERAAASTDYYKRGDFIPGLRVDGMDILCVREATKFAAAYCRSGKGPILMELQTYRYHGHSMSDPGVSYRTREEIQEVRSKSDPIMLLKDRMVNSNLASVEELKEIDVEVRKEIEDAAQFATADPEPPLEELGYHIYSSDPPFEVRGANQWIKFKSVS
B10: Prohibitin (mouse) (protein, UniProt P67778 1-272)
chain: MAAKVFESIGKFGLALAVAGGVVNSALYNVDAGHRAVIFDRFRGVQDIVVGEGTHFLIPWVQKPIIFDCRSRPRNVPVITGSKDLQNVNITLRILFRPVASQLPRIYTSIGEDYDERVLPSITTEILKSVVARFDAGELITQRELVSRQVSDDLTERAATFGLILDDVSLTHLTFGKEFTEAVEAKQVAQQEAERARFVVEKAEQQKKAAIISAEGDSKAAELIANSLATAGDGLIELRKLEAAEDIAYQLSRSRNITYLPAGQSVLLQLPQ

Protein sequences, listed by entry. Tags and fused reporters are not part of them. Residues count along the entry.
UniProt Q9ERK7: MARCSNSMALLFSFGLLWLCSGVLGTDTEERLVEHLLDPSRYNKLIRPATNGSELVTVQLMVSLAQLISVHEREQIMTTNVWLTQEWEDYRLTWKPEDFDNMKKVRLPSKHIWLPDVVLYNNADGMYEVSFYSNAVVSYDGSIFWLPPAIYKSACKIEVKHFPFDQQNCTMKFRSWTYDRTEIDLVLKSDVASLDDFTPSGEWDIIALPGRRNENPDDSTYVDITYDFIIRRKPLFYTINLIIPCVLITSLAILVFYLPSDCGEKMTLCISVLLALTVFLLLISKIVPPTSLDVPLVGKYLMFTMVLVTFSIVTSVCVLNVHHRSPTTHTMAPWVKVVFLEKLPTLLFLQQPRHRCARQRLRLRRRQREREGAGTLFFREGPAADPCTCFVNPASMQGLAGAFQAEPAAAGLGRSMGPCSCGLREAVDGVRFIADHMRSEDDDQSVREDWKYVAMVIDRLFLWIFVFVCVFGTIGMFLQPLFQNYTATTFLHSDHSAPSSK
UniProt P17787, residues 26-502: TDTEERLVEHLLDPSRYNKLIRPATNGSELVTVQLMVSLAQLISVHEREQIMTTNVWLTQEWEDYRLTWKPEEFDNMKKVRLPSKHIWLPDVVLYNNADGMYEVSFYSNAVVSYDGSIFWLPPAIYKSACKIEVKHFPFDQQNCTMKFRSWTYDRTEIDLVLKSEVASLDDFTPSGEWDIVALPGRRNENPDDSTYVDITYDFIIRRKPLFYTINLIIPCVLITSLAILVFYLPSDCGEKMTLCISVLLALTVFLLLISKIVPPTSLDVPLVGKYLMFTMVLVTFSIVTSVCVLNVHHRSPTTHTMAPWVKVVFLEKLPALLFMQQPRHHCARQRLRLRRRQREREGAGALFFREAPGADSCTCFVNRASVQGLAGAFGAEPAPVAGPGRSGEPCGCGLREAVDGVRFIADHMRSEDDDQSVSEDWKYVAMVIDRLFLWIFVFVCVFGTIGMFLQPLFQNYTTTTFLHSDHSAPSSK
UniProt P12235: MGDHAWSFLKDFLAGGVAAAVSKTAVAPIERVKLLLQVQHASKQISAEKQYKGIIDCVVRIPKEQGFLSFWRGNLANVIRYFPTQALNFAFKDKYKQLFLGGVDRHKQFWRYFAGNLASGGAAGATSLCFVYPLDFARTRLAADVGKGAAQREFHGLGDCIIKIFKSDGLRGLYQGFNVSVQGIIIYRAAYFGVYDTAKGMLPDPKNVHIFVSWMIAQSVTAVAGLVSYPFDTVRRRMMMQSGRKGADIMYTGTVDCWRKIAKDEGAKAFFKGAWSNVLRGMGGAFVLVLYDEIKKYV
UniProt P25705, residues 44-553: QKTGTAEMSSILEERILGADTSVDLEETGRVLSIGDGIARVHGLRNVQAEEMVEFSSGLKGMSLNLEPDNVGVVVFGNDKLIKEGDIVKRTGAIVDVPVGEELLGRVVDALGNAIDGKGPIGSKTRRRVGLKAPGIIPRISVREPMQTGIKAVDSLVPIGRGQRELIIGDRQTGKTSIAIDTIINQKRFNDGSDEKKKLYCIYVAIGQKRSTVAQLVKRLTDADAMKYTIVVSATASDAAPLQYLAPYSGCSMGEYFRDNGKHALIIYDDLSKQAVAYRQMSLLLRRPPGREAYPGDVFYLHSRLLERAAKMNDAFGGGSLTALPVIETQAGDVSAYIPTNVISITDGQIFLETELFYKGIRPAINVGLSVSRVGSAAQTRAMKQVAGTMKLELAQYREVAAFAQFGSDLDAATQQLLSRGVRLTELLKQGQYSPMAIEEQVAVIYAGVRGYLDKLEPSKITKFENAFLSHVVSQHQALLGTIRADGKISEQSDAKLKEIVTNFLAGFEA
UniProt Q9UQM7: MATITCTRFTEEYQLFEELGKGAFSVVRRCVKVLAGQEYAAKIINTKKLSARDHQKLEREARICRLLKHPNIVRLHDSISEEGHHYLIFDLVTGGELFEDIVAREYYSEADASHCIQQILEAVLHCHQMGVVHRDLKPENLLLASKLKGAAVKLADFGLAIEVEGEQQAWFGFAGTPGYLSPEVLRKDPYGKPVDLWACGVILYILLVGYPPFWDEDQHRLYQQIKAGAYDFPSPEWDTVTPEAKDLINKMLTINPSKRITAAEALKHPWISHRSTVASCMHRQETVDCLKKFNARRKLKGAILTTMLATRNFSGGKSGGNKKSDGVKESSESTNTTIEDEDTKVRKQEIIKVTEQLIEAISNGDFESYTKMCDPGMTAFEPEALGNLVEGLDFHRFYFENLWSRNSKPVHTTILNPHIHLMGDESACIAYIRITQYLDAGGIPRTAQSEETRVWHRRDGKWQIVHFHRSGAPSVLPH
UniProt Q13554: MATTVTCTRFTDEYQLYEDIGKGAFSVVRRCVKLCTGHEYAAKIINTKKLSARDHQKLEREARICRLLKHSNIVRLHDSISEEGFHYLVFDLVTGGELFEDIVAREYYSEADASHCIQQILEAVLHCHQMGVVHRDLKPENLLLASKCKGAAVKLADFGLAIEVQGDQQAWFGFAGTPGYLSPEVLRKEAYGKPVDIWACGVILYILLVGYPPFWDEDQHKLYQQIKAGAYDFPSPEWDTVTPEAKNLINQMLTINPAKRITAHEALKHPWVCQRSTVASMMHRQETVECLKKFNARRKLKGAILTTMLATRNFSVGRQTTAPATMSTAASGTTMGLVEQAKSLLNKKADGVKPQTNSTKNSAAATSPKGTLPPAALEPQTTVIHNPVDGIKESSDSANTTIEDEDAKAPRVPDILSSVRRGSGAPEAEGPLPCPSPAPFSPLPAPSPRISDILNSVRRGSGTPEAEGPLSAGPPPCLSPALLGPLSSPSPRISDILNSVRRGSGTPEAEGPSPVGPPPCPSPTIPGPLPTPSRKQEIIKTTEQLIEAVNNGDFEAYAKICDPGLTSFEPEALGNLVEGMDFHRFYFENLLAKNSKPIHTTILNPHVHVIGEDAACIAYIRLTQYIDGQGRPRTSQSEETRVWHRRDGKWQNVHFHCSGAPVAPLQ
UniProt Q00610: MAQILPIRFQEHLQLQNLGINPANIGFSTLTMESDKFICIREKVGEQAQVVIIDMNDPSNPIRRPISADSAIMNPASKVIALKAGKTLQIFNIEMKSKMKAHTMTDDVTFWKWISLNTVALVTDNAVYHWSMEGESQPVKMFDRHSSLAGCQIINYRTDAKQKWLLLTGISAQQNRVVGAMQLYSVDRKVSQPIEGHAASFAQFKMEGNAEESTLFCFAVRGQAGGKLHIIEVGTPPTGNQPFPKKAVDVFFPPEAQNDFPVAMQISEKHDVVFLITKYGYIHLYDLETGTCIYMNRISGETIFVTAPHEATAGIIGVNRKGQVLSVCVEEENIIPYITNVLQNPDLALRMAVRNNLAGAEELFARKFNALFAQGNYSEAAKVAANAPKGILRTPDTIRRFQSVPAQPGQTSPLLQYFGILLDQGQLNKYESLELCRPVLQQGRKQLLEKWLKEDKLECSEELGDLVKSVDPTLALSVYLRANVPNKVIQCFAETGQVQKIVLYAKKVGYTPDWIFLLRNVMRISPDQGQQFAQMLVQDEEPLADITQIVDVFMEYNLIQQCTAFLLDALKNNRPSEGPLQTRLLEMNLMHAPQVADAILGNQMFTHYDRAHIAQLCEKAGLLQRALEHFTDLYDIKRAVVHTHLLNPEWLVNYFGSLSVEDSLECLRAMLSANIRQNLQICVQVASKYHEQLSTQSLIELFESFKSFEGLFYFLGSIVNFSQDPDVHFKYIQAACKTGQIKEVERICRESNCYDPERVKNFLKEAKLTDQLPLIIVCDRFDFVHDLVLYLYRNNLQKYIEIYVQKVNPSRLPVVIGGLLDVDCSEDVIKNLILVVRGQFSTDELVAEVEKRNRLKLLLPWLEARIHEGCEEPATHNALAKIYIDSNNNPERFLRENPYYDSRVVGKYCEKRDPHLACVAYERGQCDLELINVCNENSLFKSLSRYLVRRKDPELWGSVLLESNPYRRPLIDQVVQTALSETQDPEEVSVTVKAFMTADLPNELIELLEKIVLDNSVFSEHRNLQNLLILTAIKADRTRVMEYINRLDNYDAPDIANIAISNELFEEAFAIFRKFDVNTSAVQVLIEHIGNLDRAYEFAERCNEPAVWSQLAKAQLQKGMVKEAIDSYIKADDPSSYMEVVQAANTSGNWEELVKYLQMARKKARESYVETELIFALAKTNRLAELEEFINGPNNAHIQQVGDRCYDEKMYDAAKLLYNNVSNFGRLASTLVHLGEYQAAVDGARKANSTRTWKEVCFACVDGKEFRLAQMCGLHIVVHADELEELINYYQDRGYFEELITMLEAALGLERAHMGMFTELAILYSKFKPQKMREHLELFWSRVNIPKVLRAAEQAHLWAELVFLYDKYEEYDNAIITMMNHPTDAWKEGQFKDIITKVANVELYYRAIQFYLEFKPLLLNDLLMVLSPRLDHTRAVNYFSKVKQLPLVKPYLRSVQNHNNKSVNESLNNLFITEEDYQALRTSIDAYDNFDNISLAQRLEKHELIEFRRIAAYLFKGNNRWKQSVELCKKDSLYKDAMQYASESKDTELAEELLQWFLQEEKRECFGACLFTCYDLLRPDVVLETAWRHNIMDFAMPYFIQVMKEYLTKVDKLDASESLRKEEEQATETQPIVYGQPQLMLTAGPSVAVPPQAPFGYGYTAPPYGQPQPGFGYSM
UniProt P68104: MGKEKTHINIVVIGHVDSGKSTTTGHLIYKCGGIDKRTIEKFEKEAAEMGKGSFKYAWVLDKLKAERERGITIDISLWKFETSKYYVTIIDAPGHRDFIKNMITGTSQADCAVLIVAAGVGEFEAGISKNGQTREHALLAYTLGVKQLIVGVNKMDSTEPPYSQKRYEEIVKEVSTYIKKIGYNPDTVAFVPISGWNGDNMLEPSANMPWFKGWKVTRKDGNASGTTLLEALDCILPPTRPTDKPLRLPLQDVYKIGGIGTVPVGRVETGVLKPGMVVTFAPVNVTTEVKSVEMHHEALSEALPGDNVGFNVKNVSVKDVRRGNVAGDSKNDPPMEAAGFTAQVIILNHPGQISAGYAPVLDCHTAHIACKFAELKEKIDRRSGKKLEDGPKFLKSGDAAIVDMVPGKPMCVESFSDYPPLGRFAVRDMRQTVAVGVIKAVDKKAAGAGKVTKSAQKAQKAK
UniProt P62873: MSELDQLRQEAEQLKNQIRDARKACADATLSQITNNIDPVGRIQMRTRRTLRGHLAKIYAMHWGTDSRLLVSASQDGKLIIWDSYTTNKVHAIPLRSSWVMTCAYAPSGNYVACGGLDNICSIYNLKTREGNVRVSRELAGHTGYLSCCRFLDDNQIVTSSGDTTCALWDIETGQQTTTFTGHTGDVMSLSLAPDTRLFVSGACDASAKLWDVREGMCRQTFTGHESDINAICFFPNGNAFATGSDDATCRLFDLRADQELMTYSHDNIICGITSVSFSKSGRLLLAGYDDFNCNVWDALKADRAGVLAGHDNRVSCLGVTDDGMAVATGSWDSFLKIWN
UniProt P11182, residues 62-482: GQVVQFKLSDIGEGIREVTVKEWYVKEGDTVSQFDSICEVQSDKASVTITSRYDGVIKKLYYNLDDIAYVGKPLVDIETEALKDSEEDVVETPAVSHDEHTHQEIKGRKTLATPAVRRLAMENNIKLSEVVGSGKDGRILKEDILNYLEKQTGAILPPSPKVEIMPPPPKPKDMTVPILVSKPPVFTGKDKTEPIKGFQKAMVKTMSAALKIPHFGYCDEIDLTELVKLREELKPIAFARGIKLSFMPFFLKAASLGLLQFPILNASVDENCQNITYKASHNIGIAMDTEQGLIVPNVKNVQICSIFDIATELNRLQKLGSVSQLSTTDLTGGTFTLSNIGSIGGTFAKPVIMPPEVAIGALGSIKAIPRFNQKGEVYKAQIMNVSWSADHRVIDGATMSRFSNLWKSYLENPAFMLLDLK
UniProt P60660: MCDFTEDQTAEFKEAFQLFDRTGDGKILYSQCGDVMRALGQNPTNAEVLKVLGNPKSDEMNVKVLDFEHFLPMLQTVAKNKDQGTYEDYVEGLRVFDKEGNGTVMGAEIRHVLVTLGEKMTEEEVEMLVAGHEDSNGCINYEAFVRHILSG
UniProt P43681, residues 27-627: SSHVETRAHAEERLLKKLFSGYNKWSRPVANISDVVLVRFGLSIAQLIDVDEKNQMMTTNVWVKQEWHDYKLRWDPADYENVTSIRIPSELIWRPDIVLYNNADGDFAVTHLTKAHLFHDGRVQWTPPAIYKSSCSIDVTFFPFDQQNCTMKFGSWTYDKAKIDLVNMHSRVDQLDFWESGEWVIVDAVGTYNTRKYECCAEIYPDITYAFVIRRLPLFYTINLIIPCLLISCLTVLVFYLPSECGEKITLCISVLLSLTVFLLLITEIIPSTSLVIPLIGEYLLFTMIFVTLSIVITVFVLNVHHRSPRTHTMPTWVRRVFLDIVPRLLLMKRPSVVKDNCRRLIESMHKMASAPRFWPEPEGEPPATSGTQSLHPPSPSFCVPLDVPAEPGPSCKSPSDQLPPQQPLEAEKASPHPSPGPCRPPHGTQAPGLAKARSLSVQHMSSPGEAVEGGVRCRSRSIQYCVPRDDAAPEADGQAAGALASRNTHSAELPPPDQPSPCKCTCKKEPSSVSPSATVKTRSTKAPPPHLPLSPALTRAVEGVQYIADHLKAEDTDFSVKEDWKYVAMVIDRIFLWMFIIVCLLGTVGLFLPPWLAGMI

Each molecule was assayed against Neuronal acetylcholine receptor subunit β2 (mouse) (mouse (endogenous in cortex)) (UniProt Q9ERK7) (assay: affinity purification with mass spectrometry; β2*-nAChRs captured on mAb295-coupled M270 Dynabeads from a Triton X-100 extract of pooled mouse cortex membranes after DSP cross-linking; eight-plex iTRAQ LC-MS/MS; β2+/+, β2+/-, α4+/-β2+/- and β2-/- mice given saline or nicotine (4 mg/kg/h, 10 d); proteins found in both biological replicates).

| binding | Molecule |
| --- | --- |
| binds | B1 |
| binds | B2 |
| binds | B3 |
| binds | B4 |
| binds | B5 |
| binds | B6 |
| binds | B7 |
| binds | B8 |
| binds | B9 |
| binds | B10 |

What follows are molecules tested against Neuronal acetylcholine receptor subunit β2 (human (endogenous in temporal cortex)) (UniProt P17787) (assay: affinity purification with mass spectrometry; β2*-nAChRs captured overnight at 4°C on mAb295-coupled M270 Dynabeads from a 0.6% Triton X-100 extract of postmortem human temporal cortex membranes; homogenate cross-linked with 1 mM DSP before extraction; eluted with 0.1 M NH4OH, 1 mM EDTA, pH 10; label-free LC-MS/MS (Orbitrap Elite); 18 samples from tobacco users and non-users, with or without a mood disorder).

| binding | Molecule |
| --- | --- |
| binds | 14-3-3 protein ζ/δ (from UniProt P63104 1-245) |
| binds | ADP/ATP translocase 1 (from UniProt P12235 1-298) |
| binds | ATP synthase subunit α, mito (from UniProt P25705 44-553) |
| binds | ATP synthase subunit β, mito (from UniProt P06576 48-529) |
| binds | Ankyrin-2 (from UniProt Q01484 1-3957) |
| binds | Calcium/calmodulin-dependent protein kinase type II subunit α (from UniProt Q9UQM7 1-478) |
| binds | Calcium/calmodulin-dependent protein kinase type II subunit β (from UniProt Q13554 1-666) |
| binds | Clathrin heavy chain 1 (from UniProt Q00610 1-1675) |
| binds | Drebrin (from UniProt Q16643 1-649) |
| binds | E3 ubiquitin-protein ligase TRIM21 (from UniProt P19474 1-475) |
| binds | Elongation factor 1-α1 (from UniProt P68104 1-462) |
| binds | Excitatory amino acid transporter 2 (from UniProt P43004 1-574) |
| binds | Ferritin heavy chain (from UniProt P02794 1-183) |
| binds | Gelsolin (from UniProt P06396 28-782) |
| binds | Glial fibrillary acidic protein (from UniProt P14136 1-432) |
| binds | Glyceraldehyde-3-phosphate dehydrogenase (from UniProt P04406 1-335) |
| binds | Guanine nucleotide-binding protein G(I)/G(S)/G(T) subunit β1 (from UniProt P62873 1-340) |
| binds | Guanine nucleotide-binding protein G(o) subunit α (from UniProt P09471 1-354) |
| binds | Ig γ-4 chain C region (from UniProt P01861-1) |
| binds | IgGFc-binding protein (from UniProt Q9Y6R7 24-5405) |
| binds | Lipoamide acyltransferase of branched-chain α-keto acid dehydrogenase mito (from UniProt P11182 62-482) |
| binds | Myelin basic protein (from UniProt P02686-5) |
| binds | Myosin light polypeptide 6 (from UniProt P60660 1-151) |
| binds | Myosin-9 (from UniProt P35579 1-1960) |
| binds | Myosin-10 (from UniProt P35580 1-1976) |
| binds | Neuronal acetylcholine receptor subunit α4 (from UniProt P43681 27-627) |

From article PMC4985585
